Results: patent US20220306739A1
No constants are given. Whether binding was seen depends on the method and setting. Some entries that bind do so weakly or less than the wild type.

Sequences of proteins named here, by UniProt entry; tags and fusion partners are left off.
UniProt P01850: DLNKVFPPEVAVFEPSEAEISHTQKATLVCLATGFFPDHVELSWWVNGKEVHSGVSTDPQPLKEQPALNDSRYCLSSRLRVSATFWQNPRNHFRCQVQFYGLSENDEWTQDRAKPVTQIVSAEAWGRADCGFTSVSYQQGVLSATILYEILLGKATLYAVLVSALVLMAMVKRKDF

How the values were obtained:
[1] = molecular target: TCR with TRBC1 on Jurkat cells (human) (UniProt P01850); test: flow cytometry cell binding to Jurkat E6.1 cells (TRBC1), signal:background ratio
[2] = molecular target: TCR with TRBC1 on Jurkat cells (human) (UniProt P01850); test: flow cytometry on cells

B1: anti-TRBC1 antibody JOVI-1 mIgG2a (TRB1B1) (antibody, V domains shown)
VH: EVRLQQSGPDLIKPGASVKMSCKASGYTFTGYVMHWVKQRPGQGLEWIGFINPYNDDIQSNERFRGKATLTSDKSSTTAYMELSSLTSEDSAVYYCARGAGYNFDGAYRFFDFWGQGTTLTVSS
VL: DVVMTQSPLSLPVSLGDQASISCRSSQRLVHSNGNTYLHWYLQKPGQSPKLLIYRVSNRFPGVPDRFSGSGSGTDFTLKISRVEAEDLGIYFCSQSTHVPYTFGGGTKLEIK
[1]
  binding: binds
[2]
  binding: binds
